Measured values taken from paper doi:10.1101/2021.01.05.423837.
Like-named read-outs stand apart in the source and are kept apart here. These are yes or no findings as the source states them, for the method shown. Binding seen in cells or lysates may run through a third protein. Some entries that bind do so weakly or less than the wild type. For some assays here: Sequences can lack the tags named with a protein. Blank lines part the entries; values can stand above or below the molecule they belong to.

Chains of the proteins cited; added tags and fusions are not shown.
UniProt P43694: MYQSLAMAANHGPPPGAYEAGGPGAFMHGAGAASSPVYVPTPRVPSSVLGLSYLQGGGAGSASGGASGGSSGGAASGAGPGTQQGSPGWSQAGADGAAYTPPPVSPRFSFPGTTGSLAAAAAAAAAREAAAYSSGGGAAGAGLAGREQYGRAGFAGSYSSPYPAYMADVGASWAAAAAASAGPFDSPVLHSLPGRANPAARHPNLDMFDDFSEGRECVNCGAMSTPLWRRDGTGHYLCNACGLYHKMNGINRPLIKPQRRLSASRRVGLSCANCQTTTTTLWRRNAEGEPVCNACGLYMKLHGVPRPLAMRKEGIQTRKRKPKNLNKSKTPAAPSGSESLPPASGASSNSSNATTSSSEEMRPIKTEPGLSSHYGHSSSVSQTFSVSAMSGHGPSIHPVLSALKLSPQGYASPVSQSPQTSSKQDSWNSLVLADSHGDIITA
UniProt Q92922: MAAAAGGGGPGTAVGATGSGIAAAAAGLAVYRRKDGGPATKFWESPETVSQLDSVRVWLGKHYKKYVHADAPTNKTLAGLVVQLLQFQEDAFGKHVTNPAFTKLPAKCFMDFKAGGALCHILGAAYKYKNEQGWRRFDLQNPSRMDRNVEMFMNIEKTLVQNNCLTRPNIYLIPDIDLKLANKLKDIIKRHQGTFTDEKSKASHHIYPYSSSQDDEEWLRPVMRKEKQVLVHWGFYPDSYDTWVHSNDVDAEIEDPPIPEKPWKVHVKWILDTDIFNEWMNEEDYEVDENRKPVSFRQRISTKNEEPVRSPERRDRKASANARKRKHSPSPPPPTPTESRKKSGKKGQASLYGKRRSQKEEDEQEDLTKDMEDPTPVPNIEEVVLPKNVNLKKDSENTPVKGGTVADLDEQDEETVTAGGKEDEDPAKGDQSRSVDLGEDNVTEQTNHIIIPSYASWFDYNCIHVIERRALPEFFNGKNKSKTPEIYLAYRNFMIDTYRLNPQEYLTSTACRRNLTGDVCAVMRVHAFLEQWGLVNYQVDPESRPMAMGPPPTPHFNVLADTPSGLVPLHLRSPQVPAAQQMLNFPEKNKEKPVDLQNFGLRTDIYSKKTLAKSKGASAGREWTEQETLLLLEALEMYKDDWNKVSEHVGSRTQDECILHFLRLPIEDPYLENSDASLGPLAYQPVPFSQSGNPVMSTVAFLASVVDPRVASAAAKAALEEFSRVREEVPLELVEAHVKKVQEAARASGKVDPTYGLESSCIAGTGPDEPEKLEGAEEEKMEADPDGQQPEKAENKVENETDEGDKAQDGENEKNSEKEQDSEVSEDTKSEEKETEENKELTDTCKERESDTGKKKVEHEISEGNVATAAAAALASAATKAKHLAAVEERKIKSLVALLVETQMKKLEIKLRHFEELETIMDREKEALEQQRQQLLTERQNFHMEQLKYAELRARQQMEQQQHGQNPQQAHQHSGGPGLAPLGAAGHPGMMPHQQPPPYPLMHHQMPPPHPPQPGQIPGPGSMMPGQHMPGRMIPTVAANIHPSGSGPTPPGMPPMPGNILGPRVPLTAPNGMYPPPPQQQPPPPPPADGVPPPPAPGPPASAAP

Columns and labels:
Test in all cases: co-IP
[1] = target: GATA4 (endogenous, human iPSC-derived cardiac progenitors) (human (endogenous in hiPSC-derived cardiac progenitors)) (UniProt P43694)
GLYR1-MYC WT (human) = target: T1, GLYR1-MYC WT (human) (UniProt Q49A26)
T1 sequence: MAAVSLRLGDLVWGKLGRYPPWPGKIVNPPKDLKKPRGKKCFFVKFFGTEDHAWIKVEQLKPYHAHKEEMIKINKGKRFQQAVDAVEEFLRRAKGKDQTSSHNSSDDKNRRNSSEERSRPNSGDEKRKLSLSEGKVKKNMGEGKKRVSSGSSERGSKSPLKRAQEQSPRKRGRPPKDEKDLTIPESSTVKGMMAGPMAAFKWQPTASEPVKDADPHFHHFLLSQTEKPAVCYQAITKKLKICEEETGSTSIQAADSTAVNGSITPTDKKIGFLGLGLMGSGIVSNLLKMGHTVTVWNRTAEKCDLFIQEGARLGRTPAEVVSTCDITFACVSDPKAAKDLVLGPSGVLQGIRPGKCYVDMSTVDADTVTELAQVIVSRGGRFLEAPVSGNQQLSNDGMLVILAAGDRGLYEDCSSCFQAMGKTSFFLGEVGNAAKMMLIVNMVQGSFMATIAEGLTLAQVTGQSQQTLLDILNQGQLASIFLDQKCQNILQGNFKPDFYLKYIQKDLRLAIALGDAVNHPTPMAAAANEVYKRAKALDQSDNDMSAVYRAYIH

[2] = target: SMARCC1 WT, MYC- or HA-tagged (human) (UniProt Q92922)
GFP-GATA4 (human) = GFP-GATA4 (human) (UniProt P43694)
[3] = target: GATA4 (endogenous, human iPSC-derived cardiac progenitors) (human (endogenous in hiPSC-derived cardiac progenitors)) (UniProt P43694); remark: listed apart in the source

Molecule: SMARCC1 (endogenous, human iPSC-derived cardiac progenitors) (from UniProt Q92922 1-1105)
binding [1]: binds

Molecule: GATA4 (ectopically expressed in HEK293 cells, tag not told) (from UniProt P43694 1-442)
binding (GLYR1-MYC WT (human)): binds | binding [2]: binds

Results, then the molecule that gave them:

binding (GFP-GATA4 (human)): binds
B1: GLYR1-MYC WT (protein, UniProt Q49A26 1-553)
chain: T1 sequence

binding [3]: binds
B2: GLYR1 (endogenous, human iPSC-derived cardiac progenitors) (protein, UniProt Q49A26 1-553)
chain: T1 sequence
